This note sets out measurements from PMC11658773.

By UniProt entry, the sequences of proteins in these tests, tags left out.
UniProt O08530: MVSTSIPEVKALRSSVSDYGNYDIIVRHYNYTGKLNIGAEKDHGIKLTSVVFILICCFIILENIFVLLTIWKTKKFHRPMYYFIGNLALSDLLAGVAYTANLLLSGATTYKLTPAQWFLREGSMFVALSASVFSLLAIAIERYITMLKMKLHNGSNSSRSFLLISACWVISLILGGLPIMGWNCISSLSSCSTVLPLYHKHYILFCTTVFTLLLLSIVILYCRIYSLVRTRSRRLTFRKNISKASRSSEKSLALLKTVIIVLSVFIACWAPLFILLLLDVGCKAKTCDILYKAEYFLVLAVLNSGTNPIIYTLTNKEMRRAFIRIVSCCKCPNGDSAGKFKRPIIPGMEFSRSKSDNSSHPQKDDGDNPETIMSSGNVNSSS

Assay [1] deals with S1PR1 (sphingosine 1-phosphate receptor 1), bait in pBT3-STE (UniProt O08530). Nature of the assay: two-hybrid; split-ubiquitin membrane-based yeast two-hybrid; bait fused to Cub-LexA-VP16 (pBT3-STE), prey fused to NubG (pPR3-C); cotransformed into yeast NMY51; growth on SD/-Trp/-Leu for 3 days at 30°C, interaction examined on SD/-Leu/-Trp/-His/-Ade (QDO, X-gal).
Assay [2] has as its target S1PR1, endogenous in mouse dentate gyrus (mouse (endogenous in dentate gyrus tissue)) (UniProt O08530). Nature of the assay: co-IP; mouse dentate gyrus tissue lysed in RIPA buffer; anti-S1PR1 antibody (Abcam Ab259902) on Protein A beads, 1 hr at room temperature; immunoblot with anti-ITGA2; immunoglobulin G as negative control.

No constants are given. Whether binding was seen depends on the method and setting. For some assays here: Binding seen in cells or lysates may run through a third protein. Some entries that bind do so weakly or less than the wild type.

B1: ITGA2 (integrin alpha 2), prey in pPR3-C (protein, UniProt Q62469 27-1178)
chain: YNVGLPGAKIFSGPSSEQFGYSVQQLTNPQGNWLLVGSPWSGFPENRMGDVYKCPVDLPTATCEKLNLQNSASISNVTEIKTNMSLGLTLTRNPGTGGFLTCGPLWAHQCGNQYYATGICSDVSPDFQFLTSFSPAVQACPSLVDVVVVCDESNSIYPWEAVKNFLVKFVTGLDIGPKKTQVALIQYANEPRIIFNLNDFETKEDMVQATSETRQHGGDLTNTFRAIEFARDYAYSQTSGGRPGATKVMVVVTDGESHDGSKLKTVIQQCNDDEILRFGIAVLGYLNRNALDTKNLIKEIKAIASTPTERYFFNVADEAALLEKAGTLGEQIFSIEGTVQGGDNFQMEMAQVGFSADYAPQNDILMLGAVGAFDWSGTLVQETSHKPVIFPKQAFDQVLQDRNHSSFLGYSVAAISTEDGVHFVAGAPRANYTGQIVLYSVNKQGNVTVIQSHRGDQIGSYFGSVLCSVDVDKDTITDVLLVGAPTYMNDLKKEEGKVYLFTITKGILNQHQFLEGPEGTGNARFGSAIAALSDINMDGFNDVIVGSPVENENSGAVYIYNGHQGTIRTKYSQKILGSNGAFRRHLQFFGRSLDGYGDLNGDSITDVSIGALGQVIQLWSQSIADVAIEALFTPDKITLLNKDAKITLKLCFRAEFRPAGQNNQVAILFNMTLDADGHSSRVTSRGVFRENSERFLQKNMVVNEVQKCSEHHISIQKPSDVVNPLDLRVDISLENPGTSPALEAYSETVKVFSIPFYKECGSDGICISDLILDVQQLPAIQTQSFIVSNQNKRLTFSVILKNRGESAYNTVVLAEFSENLFFASFSMPVDGTEVTCEVGSSQKSVTCDVGYPALKSEQQVTFTINFDFNLQNLQNQAAINFQAFSESQETNKADNSVSLTIPLLYDAELHLTRSTNINFYEISSDENAPSVIKSVEDIGPKFIFSLKVTAGSAPVSMALVTIHIPQYTKEKNPLLYLTGIQTDQAGDISCTAEINPLKLPHTAPSVSFKNENFRHTKELDCRTTSCSNITCWLKDLHMKAEYFINVTTRVWNRTFAASTFQTVQLTAAAEIDTHNPQLFVIEENAVTIPLMIMKPTEKAEVPTGVIIGSIIAGILLLLAMTAGLWKLGFFKRQYKKMGQNPDEMDETTELNS
Turning to B1, the binding result in assay [1] is recorded as “binds”.

B2: ITGA2, endogenous in mouse dentate gyrus (protein, UniProt Q62469 27-1178)
chain: B1 chain
As for B2, in assay [2], the binding result is “binds”.
